Measured values taken from PubChem BioAssay AID540335 (Broad Institute, 2011).
Screen size: about 1,300 compounds; about 270 (21%) were called active.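 The calls were made as follows: active = dose-dependent rise or fall in viability, either side of zero, with half-maximal concentration at or below a set limit; inconclusive = flat curve at 30 to 70% viability loss, or poor fit; inactive = flat within 30% either way, or potency beyond limit.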 Some of the results follow. Potency and affinity values are given separately.

Assay: A375 melanoma cell viability reduction, dose response, counter-screen for MITF modulator project, cherry-pick samples, set 2 (AID 540335);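 also: A375 human melanoma cells which do not depend on MITF; 0% = median of neutral control wells and 100% = double that signal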
Settings: CellTiter-Glo ATP luminescence, 24 h; at 35 µM (top of the series)
For O=C(N/N=C\c1ccc([N+](=O)[O-])o1)C1COc2ccccc2O1 (stereo not given), the activity change, negative = decreased viability was inactive: -6.08%.
With CCOc1ccccc1NC(=O)C(=O)N/N=C/c1cc(Br)ccc1O the activity change, negative = decreased viability was inactive: -30.9%.
For CCC(=O)OCCNc1cc(Sc2nc3ccccc3[nH]2)c2nonc2c1[N+](=O)[O-], the activity change, negative = decreased viability was inactive: 24.5%.
With Cc1ccsc1C(=O)OCC(=O)Nc1sccc1C(N)=O the activity change, negative = decreased viability was inactive: -10.9%.
In the case of Cc1cc(C)nc(S/C=C/C(=O)c2ccccc2F)n1, the activity change, negative = decreased viability is reported as inactive: -20.2%.
With C=C1C(=O)C=C[C@]2(C)C[C@@H]3OC(=O)[C@](C)(O)[C@H]3C[C@@H]12 the activity change, negative = decreased viability was inactive: -1.56%.
With CCN1c2ccccc2NC2C1C(C(C)=O)C(=O)N2c1ccc(Cl)cc1 (stereo not given) the activity change, negative = decreased viability was inactive: -2.02%.
In the case of Brc1cccc(/C=N/Nc2nn[nH]n2)c1, the activity change, negative = decreased viability is reported as inactive: 2.47%.
With CCC1CCCCN1CCCNC(=O)c1cn(CC)c2ccc(S(=O)(=O)N(C)C3CCCCC3)cc2c1=O (stereo not given) the activity change, negative = decreased viability was inactive: 10.2%.
For CC(=O)OCCNc1cc(Sc2nc3ccccc3[nH]2)c2nonc2c1[N+](=O)[O-], the activity change, negative = decreased viability was inactive: 1.78%.
In the case of CC(C)[C@H](NC(=O)OC(C)(C)C)c1nnc(S(=O)(=O)Cc2c(F)cccc2Cl)o1, the activity change, negative = decreased viability is reported as inactive: 94.5%.
In the case of COc1ccc(/C=C/C(=O)NC(=S)N2CCN(c3ccccc3OC)CC2)cc1, the activity change, negative = decreased viability is reported as inactive: 2.37%.
For Cc1cc(C)c2c(N)c(C(=O)N/N=C/c3ccccc3)sc2n1, the activity change, negative = decreased viability was inactive: 12.6%.
For COC(=O)CSC1=C(C#N)C(=O)NC(c2ccccc2)S1 (stereo not given), the activity change, negative = decreased viability was inactive: 49%.
With C=CCn1c(C)cc(C2=NNC(=NC(C)(C)C)SC2)c1C the activity change, negative = decreased viability was inactive: -8.51%.
In the case of O=C(Nc1ccc(N2CCOCC2)c(Cl)c1)c1cccc(F)c1, the activity change, negative = decreased viability is reported as inactive: 9.79%.
With COCn1c(COc2ccccc2)nc2ccccc21 the activity change, negative = decreased viability was inactive: -21.5%.
In the case of Nc1nnnn1/N=C/C(Br)=C/c1ccccc1, the activity change, negative = decreased viability is reported as inactive: -22.9%.
For COc1ccc(CCn2c(=S)[nH]c3cc(C(=O)NCc4ccco4)ccc3c2=O)cc1OC, the activity change, negative = decreased viability was inactive: -33.1%.
With Cc1cccc(NC(=O)c2cnn(-c3ccccc3)c2C)c1C the activity change, negative = decreased viability was inactive: 16.8%.
With COc1cc([N+](=O)[O-])cc(/C=N/NC(=O)c2ccc(NC(=O)c3ccc(C)cc3)cc2)c1O the activity change, negative = decreased viability was inactive: -6.25%.
With O=C(O)CSCC(=O)Nc1ccc(C2CCCCC2)cc1 the activity change, negative = decreased viability was inactive: -1.99%.
For Nc1c2c(=O)oc(-c3ccccc3)cc2nn1-c1ccccc1, the activity change, negative = decreased viability was inactive: 1.59%.
In the case of CCCCC[n+]1ccn(C2=C([O-])c3ccccc3C(=O)/C2=N\S(=O)(=O)c2ccccc2)c1, the activity change, negative = decreased viability is reported as inactive: -11%.
In the case of COCc1cc(C)nc2sc(C(=O)Nc3ccc(OC)cc3)c(N)c12, the activity change, negative = decreased viability is reported as inactive: -2.81%.
For O=C(Nc1ccc(Br)cc1)c1ccc2c(c1)OCO2, the activity change, negative = decreased viability was inactive: 8.84%.
With Nc1ccc(-c2cc3ccccc3c(=O)o2)cc1 the activity change, negative = decreased viability was inactive: -1.07%.
In the case of CCOC(=O)N1CCN(C(=O)c2ccc(Cn3c(=S)[nH]c4ccc(Br)cc4c3=O)cc2)CC1, the activity change, negative = decreased viability is reported as inactive: -24.5%.
In the case of CC(=O)N(c1nnc(-c2cccc(C)c2)s1)C1CCCC1, the activity change, negative = decreased viability is reported as inactive: 7.34%.
With Cc1cc(C)cc(NC(=O)c2ccc([N+](=O)[O-])o2)c1 the activity change, negative = decreased viability was inactive: -28%.
In the case of CC(C)C(=O)Nc1cccc(NC(=O)c2cc3ccccc3o2)c1, the activity change, negative = decreased viability is reported as inactive: 6.6%.
With COc1ccc(C2C(C#N)=C(N)Oc3c2oc(CO)cc3=O)cc1 (stereo not given) the activity change, negative = decreased viability was inactive: 7.94%.
For O=C(/C=C/c1ccc(Cl)c([N+](=O)[O-])c1)c1ccc(O)cc1, the activity change, negative = decreased viability was inactive: 24.9%.
In the case of Cc1ccc(O)c(NC(=O)c2ccc3c(c2)C(=O)N(CC(C)C)C3=O)c1, the activity change, negative = decreased viability is reported as inactive: -0.369%.
With CCN1CCN(c2ccc(S(=O)(=O)N3CCCCC3)cc2NC(=O)/C=C/c2ccc([N+](=O)[O-])cc2)CC1 the activity change, negative = decreased viability was inactive: -9.5%.
In the case of Cc1ccc2nc(-c3ccncc3)[nH]c2c1, the activity change, negative = decreased viability is reported as inactive: -3.24%.
With CCOc1ccc(-n2c(O)c(/C=N/Nc3nc(C)cc(C)n3)c3ccccc3c2=O)cc1 the activity change, negative = decreased viability was inactive: -7.25%.
For N=c1n(CCN2CCCC2)c2ccccc2n1CC(O)c1ccc(Cl)c(Cl)c1 (stereo not given), the activity change, negative = decreased viability was inactive: -89.6%.
In the case of COc1ccc(-c2cc(-c3ccc(OC)c(OC)c3)n[nH]2)c(O)c1, the activity change, negative = decreased viability is reported as inactive: -7.59%.
With N#C/C(=C\c1ccc(OCc2ccc(C(=O)O)cc2)cc1)C(=O)N1CCOCC1 the activity change, negative = decreased viability was inactive: -3.63%.
With COc1ccc(N(CC(=O)NCC2CCCO2)S(=O)(=O)c2ccccc2)cc1OC (stereo not given) the activity change, negative = decreased viability was inactive: -0.293%.
For Cc1ccc(SCCSc2ncccn2)cc1, the activity change, negative = decreased viability was inactive: -15.2%.
In the case of COc1ccccc1-c1nnc(-c2ccc(C)cc2)o1, the activity change, negative = decreased viability is reported as inactive: 7.71%.
With COCc1nc(-c2ccc(-c3ccccc3)nc2OC)no1 the activity change, negative = decreased viability was inactive: 3.8%.
For COc1ccc(NC(C)C(=O)N/N=C/c2ccc([N+](=O)[O-])s2)cc1 (stereo not given), the activity change, negative = decreased viability was inactive: 2.8%.
In the case of Cc1ccc(C)c(S(=O)(=O)N2CCN(Cc3ccc(O)c4ncccc34)CC2)c1, the activity change, negative = decreased viability is reported as inactive: -30.3%.
In the case of O=[N+]([O-])c1ccc(/C=N/n2c(CO)nc3ccccc32)s1, the activity change, negative = decreased viability is reported as inactive: -12.5%.
For COc1ccc(-c2csc(Nc3ccccn3)n2)cc1OC, the activity change, negative = decreased viability was inactive: 8.18%.
For C=CCNC(=O)c1ccc2nc(Cc3ccc(OC)cc3)oc2c1, the activity change, negative = decreased viability was inactive: 1.63%.
With Brc1ccc(-c2cn3cccnc3n2)cc1 the activity change, negative = decreased viability was inactive: 6.27%.
For C/C(=N\NC(=O)C1COc2ccccc2O1)c1ccccn1 (stereo not given), the activity change, negative = decreased viability was inactive: -32.6%.
With CC(C)N1C(=O)S/C(=C\c2ccc(-c3ccc(Cl)c(C(=O)O)c3)o2)C1=O the activity change, negative = decreased viability was inactive: -2.37%.
With Clc1ccccc1CSc1nnc(-c2ccncc2)o1 the activity change, negative = decreased viability was inactive: 11.3%.
For COc1cc(SC)ccc1C(=O)NCCOc1ccccc1Cl, the activity change, negative = decreased viability was inactive: 10.6%.
In the case of N#CC(C#N)=C1C=CC=CN1/C(=C\c1ccco1)C(=O)c1ccc(Br)cc1, the activity change, negative = decreased viability is reported as inactive: 45.1%.
For Cc1oc(=O)c(NC(=O)c2ccccc2)cc1C(=O)c1ccccc1, the activity change, negative = decreased viability was inactive: 9.47%.
With CC(=O)Nc1ccc2c(c1)ncn2-c1ccccc1 the activity change, negative = decreased viability was inactive: 8.14%.
In the case of O=C(NCc1ccccc1)C(=O)Nc1cccc(C(=O)O)c1, the activity change, negative = decreased viability is reported as inactive: 3.7%.
In the case of CCS(=O)(=O)c1ccc(N=Nc2ccc(O)c3ncccc23)c(OC)c1, the activity change, negative = decreased viability is reported as inactive: -34%.
In the case of CN(Cc1ccccc1)C1=CC(=[N+]2CCCC2)CC(C)(C)C1, the activity change, negative = decreased viability is reported as inactive: -13.8%.
